Measured values taken from US20140271634A1, “COMBINATIONS OF A MEK INHIBITOR COMPOUND WITH AN HER3/EGFR INHIBITOR COMPOUND AND METHODS OF USE” (The Regents of the University of California, priority 2013, published 2014).
Results are given in words; binding and its absence hold for the method and conditions named. Some binding calls cover weakened binding; strength is not graded here.

Amino acid sequences for entries named in this document (tags omitted). Residues count along the entry.
UniProt P21860, residues 20-643: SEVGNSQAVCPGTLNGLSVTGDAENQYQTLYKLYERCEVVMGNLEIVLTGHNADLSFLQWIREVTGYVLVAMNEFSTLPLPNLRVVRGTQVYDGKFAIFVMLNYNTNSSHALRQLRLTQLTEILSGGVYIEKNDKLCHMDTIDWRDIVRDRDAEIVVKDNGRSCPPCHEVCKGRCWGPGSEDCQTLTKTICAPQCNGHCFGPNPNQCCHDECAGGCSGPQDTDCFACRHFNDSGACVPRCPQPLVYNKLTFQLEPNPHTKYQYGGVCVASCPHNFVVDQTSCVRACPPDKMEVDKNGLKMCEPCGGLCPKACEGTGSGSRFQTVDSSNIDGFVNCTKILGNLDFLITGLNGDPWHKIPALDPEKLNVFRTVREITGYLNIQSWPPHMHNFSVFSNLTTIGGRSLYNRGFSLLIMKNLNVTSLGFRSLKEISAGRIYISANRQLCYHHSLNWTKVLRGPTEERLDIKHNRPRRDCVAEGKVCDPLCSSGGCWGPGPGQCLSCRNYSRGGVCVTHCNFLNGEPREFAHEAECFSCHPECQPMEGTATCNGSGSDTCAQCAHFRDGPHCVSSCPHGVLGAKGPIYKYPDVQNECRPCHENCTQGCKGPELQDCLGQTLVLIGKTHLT

Assays:
[1] = target: T1, HER3-ECD (Homo sapiens, UniProt P21860); experiment: competitive binding assay; soluble HER3-ECD as competitor (0.02-20 µg/ml) against immobilized EGFR-ECD
[2] = target: T1, HER3-ECD; experiment: competitive binding assay, figure legend of FIG. 1
[3] = target: EGFR-ECD (UniProt P00533); experiment: competitive binding assay, figure legend of FIG. 1
[4] = target: EGFR-ECD (UniProt P00533); experiment: competitive binding assay; soluble EGFR-ECD as competitor (0.02-20 µg/ml) against immobilized HER3-ECD

Measured: binding

B1: MEHD7945A (bispecific antibody, V domains shown)
VH: EVQLVESGGGLVQPGGSLRLSCAASGFTLSGDWIHWVRQAPGKGLEWVGEISAAGGYTDYADSVKGRFTISADTSKNTAYLQMNSLRAEDTAVYYCARESRVSFEAAMDYWGQGTLVTVSS
VL: DIQMTQSPSSLSASVGDRVTITCRASQNIATDVAWYQQKPGKAPKLLIYSASFLYSGVPSRFSGSGSGTDFTLTISSLQPEDFATYYCQQSEPEPYTFGQGTKVEIKR
binds: [1] | [2] | [3] | [4]
